Results taken from the supplement of paper PMC12067093, “Discovery and optimisation of a covalent ligand for TRIM25 and its application to targeted protein ubiquitination” (Chemical Science, 2025).
The other results are listed elsewhere or left out.

Amino acid sequences for entries named in this document (tags omitted). A change or cut given only in a name is not applied to a line headed by its entry.
UniProt P57737: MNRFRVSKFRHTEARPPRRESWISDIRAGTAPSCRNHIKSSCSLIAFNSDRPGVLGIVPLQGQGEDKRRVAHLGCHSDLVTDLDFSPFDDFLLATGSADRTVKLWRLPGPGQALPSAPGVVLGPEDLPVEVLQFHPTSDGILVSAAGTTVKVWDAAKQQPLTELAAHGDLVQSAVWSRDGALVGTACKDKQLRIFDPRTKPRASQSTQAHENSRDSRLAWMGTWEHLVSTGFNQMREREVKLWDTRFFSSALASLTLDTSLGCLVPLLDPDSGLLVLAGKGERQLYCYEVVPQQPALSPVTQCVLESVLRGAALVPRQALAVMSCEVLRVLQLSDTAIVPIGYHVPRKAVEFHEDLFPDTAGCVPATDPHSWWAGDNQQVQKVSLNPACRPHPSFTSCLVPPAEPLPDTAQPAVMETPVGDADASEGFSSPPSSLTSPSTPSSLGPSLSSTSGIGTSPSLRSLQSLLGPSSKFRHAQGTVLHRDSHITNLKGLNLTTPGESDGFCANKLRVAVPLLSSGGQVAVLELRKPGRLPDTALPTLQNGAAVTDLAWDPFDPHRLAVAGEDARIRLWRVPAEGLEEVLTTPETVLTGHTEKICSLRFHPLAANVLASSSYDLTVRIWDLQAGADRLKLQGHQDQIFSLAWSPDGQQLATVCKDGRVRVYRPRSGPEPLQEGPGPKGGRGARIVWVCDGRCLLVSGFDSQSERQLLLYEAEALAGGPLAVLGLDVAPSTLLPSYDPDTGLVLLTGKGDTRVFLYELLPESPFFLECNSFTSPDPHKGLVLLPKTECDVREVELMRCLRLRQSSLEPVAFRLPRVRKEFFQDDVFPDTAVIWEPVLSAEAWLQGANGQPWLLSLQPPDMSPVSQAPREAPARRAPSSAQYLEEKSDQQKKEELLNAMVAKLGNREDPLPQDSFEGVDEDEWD
UniProt P68400, whole entry, looked up: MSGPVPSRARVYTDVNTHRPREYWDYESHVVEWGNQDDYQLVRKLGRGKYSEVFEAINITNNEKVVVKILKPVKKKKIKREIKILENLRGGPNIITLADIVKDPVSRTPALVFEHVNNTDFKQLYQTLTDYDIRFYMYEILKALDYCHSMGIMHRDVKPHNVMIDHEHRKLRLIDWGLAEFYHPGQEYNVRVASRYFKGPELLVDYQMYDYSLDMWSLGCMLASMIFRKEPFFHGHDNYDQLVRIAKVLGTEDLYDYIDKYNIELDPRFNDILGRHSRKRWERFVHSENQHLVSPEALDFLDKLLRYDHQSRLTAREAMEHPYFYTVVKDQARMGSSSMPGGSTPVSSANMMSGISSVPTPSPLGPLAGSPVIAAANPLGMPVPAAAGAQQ
UniProt P67870, whole entry, looked up: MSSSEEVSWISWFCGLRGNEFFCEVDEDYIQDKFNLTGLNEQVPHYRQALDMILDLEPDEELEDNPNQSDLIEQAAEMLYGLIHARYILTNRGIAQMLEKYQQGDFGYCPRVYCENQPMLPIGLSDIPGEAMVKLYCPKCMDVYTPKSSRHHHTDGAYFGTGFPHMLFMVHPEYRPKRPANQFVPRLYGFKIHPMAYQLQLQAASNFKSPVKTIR
UniProt Q10570: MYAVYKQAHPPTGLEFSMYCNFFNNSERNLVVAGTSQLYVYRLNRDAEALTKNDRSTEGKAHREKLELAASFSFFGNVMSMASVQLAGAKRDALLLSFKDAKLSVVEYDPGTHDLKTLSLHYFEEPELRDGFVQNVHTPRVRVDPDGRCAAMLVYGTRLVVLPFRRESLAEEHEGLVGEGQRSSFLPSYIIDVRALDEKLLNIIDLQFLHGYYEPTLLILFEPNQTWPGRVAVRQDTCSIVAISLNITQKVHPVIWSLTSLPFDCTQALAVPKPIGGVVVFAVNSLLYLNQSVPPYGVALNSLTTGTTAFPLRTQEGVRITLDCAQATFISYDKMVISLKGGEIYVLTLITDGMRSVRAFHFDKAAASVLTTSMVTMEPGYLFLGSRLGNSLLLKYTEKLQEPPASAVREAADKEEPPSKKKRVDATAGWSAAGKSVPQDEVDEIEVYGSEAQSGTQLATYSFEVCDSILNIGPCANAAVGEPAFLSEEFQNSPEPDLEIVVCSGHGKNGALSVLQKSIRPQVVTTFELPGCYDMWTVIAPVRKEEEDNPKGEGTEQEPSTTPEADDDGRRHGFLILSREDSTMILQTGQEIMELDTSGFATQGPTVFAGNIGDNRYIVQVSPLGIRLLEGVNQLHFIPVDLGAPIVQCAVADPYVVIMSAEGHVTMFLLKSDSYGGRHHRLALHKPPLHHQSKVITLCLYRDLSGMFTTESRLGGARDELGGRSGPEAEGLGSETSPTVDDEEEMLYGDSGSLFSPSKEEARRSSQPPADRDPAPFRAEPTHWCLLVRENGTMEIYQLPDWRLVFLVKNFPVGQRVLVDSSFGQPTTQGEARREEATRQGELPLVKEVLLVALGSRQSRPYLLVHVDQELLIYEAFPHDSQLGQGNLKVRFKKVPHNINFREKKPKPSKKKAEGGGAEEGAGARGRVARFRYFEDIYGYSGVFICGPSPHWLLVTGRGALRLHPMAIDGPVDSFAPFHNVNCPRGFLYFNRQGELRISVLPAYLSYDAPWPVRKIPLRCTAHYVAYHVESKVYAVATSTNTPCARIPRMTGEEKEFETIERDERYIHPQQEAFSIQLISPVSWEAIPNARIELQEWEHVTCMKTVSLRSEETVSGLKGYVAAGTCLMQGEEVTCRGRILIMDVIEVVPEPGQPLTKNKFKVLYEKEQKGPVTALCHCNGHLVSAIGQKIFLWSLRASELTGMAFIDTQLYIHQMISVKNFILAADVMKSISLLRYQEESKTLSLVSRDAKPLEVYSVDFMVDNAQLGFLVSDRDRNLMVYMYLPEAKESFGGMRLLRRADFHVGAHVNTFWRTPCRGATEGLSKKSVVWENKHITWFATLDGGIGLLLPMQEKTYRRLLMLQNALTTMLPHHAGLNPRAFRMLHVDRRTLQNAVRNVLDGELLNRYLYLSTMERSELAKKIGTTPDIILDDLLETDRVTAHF
UniProt Q9BSW2: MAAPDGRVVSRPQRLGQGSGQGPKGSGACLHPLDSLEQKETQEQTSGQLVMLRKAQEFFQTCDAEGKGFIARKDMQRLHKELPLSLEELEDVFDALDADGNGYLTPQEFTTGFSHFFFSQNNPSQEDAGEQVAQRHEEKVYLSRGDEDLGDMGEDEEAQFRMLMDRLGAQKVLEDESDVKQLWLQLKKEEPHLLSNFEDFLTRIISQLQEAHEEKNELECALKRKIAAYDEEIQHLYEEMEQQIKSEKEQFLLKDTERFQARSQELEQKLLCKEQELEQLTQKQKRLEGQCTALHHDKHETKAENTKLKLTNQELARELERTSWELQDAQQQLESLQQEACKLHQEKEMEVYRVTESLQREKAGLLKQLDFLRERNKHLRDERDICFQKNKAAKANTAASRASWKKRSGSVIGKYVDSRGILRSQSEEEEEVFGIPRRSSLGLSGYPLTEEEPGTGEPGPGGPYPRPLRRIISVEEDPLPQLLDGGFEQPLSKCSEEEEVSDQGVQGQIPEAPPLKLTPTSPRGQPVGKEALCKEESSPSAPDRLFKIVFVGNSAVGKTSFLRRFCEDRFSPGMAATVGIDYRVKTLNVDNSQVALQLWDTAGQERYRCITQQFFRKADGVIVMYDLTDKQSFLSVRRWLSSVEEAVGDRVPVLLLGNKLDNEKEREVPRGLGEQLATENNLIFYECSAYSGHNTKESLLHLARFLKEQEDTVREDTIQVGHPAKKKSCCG
UniProt P29762, whole entry, looked up: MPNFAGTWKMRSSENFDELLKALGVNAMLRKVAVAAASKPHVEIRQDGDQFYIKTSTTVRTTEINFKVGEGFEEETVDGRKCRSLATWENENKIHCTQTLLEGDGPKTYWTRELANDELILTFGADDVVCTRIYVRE
UniProt P23786: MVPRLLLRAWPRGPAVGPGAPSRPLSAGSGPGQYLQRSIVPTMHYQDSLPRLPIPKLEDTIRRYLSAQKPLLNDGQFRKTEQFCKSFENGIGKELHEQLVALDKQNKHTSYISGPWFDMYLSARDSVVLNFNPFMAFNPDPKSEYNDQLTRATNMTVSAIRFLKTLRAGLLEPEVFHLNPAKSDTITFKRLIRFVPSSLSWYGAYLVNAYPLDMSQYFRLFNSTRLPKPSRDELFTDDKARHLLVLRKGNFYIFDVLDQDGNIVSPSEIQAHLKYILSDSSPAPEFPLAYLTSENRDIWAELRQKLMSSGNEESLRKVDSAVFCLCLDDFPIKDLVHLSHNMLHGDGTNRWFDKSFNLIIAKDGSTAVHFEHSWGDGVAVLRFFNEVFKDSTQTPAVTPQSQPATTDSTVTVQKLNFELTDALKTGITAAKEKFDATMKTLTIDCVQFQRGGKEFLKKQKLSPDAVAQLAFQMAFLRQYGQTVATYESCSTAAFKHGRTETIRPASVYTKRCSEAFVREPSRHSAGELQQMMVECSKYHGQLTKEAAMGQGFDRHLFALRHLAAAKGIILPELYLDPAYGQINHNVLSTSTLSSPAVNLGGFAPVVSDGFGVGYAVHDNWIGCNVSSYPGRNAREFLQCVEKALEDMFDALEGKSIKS
UniProt Q9ULV4, whole entry, looked up: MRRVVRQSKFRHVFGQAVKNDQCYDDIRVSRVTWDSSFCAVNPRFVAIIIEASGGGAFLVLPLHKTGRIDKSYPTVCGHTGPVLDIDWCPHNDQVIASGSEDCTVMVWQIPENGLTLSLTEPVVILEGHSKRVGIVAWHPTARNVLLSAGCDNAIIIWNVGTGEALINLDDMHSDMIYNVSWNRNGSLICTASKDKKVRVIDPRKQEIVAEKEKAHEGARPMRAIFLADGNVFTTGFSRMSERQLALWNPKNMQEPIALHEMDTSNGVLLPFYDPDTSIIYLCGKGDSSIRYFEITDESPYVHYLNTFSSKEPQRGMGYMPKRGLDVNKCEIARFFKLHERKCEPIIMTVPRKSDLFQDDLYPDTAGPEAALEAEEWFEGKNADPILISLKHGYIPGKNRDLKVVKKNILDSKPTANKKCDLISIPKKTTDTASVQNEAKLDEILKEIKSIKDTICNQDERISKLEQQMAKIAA
UniProt P36551: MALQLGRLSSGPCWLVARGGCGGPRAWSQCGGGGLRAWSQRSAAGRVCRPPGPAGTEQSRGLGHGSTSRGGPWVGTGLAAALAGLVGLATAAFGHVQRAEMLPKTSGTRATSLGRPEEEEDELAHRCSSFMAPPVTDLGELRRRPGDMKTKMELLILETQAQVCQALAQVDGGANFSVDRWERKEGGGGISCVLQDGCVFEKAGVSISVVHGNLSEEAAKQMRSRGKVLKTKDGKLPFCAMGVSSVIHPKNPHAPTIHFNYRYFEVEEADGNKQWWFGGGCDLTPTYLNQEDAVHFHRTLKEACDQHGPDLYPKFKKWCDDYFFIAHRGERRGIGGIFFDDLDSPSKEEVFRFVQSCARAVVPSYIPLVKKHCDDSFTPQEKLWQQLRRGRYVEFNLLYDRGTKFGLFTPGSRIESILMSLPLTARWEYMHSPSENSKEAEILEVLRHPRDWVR
UniProt P55060: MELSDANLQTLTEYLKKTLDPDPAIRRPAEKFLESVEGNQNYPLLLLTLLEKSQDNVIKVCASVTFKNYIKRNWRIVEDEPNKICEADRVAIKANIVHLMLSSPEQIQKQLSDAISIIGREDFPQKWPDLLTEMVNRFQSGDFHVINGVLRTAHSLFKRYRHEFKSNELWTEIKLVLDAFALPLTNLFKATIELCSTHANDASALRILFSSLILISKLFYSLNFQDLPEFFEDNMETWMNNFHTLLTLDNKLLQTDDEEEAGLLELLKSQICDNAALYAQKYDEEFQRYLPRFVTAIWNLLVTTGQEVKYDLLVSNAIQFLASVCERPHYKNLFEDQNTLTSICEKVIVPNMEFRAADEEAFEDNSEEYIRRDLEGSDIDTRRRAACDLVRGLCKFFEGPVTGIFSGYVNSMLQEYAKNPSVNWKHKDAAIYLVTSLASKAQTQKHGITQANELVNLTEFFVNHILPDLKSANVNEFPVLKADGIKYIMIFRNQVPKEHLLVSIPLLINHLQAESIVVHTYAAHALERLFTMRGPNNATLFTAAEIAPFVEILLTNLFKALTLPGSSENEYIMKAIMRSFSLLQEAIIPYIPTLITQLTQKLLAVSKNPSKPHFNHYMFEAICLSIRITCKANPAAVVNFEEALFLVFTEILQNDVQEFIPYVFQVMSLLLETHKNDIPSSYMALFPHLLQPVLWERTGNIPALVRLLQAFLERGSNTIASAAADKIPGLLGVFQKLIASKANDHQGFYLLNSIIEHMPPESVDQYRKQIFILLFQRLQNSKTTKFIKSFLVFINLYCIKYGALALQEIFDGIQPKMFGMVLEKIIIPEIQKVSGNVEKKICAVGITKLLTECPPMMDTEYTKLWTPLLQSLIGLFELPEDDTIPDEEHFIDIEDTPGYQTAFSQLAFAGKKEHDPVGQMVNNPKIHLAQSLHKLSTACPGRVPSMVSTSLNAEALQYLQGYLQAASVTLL
UniProt P10606, whole entry, looked up: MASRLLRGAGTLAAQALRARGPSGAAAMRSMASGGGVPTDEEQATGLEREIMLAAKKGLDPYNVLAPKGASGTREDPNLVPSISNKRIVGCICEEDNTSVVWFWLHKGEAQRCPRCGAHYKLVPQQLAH

Compound: Cc1cc(ccc1-c1ccccc1)C(=O)N1CCCN(CC1)C(=O)CCl [compound 10]
Assay: probe-labelled cysteine peptide fold change vs DMSO (competition) (log2 fold change); higher = less target engagement (more negative = stronger competition)
Conditions: THP-1, incubation time: 4 h
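Further: competitive profiling in live THP-1 cells: cysteine peptides tagged with an iodoacetamide desthiobiotin (IA-DTB) probe, intensity after compound treatment relative to DMSO-treated cells.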

Target | probe-labelled cysteine peptide fold change (10 µM) | probe-labelled cysteine peptide fold change (50 µM)
CORO7_P57737_695_CLLVSGFDSQSER (UniProt P57737) | 0.484 | -0.508
CSNK2A1_P68400_147_ALDYCHSMGIMHR (UniProt P68400) | 0.22 | 0.316
CSTF3_Q12996_176_GCVNPMINIEQLWR (UniProt Q12996) | 0.034 | 0.192
CTAGE5_O15320_131_EATEAQSLEATCEK (UniProt Q96PC5+O15320) | 0.0328 | 0.226
CTBP1_Q13363_54_DVATVAFCDAQSTQEIHEK (UniProt Q13363) | -0.258 | 0.0269
CTBS_Q01459_281_GAPCSDAAGR (UniProt Q01459) | -0.049 | -0.0117
CTCF_P49711_299_CHLCGR (UniProt P49711) | 0.168 | 0.282
CPM_P14384_341_KHICPYR (UniProt P14384) | -0.0518 | -0.455
CRYL1_Q9Y2S2_141_QCIVAHPVNPPYYIPLVELVPHPETAPTTVDR (UniProt Q9Y2S2) | 0.0414 | 0.407
CPD_O75976_1140_HLASLYANNHPSMHMGQPSCPNK (UniProt O75976) | 0.117 | -0.0674
CSNK2B_P67870_23_GNEFFCEVDEDYIQDK (UniProt P67870) | -0.0762 | 0.0745
CPSF1_Q10570_1020_CTAHYVAYHVESK (UniProt Q10570) | 0.0843 | -0.0666
CRACR2A_Q9BSW2_29_GSGACLHPLDSLEQK (UniProt Q9BSW2) | -0.125 | -0.217
CRABP1_P29762_130_ELANDELILTFGADDVVCTR (UniProt P29762) | 0.082 | 0.307
CPT2_P23786_639_EFLQCVEK (UniProt P23786) | 0.159 | 0.0476
CORO1C_Q9ULV4_23_NDQCYDDIR (UniProt Q9ULV4) | 0.000894 | 0.0628
CPQ_Q9Y646_233_IPTACITVEDAEMMSR (UniProt Q9Y646) | -0.0128 | 0.149
CSTF1_Q05048_402+415_CIVHSPTNPGFMTCSDDFR (UniProt Q05048) | 0.0401 | -0.0365
CSDE1_O75534_730_CSACNVWR (UniProt O75534) | 0.0262 | -0.27
CPOX_P36551_319_WCDDYFFIAHR (UniProt P36551) | 0.0777 | 0.126
CPT2_P23786_512_CSEAFVREPSR (UniProt P23786) | -0.113 | -0.366
CSE1L_P55060_939_LSTACPGR (UniProt P55060) | -0.114 | -0.0231
CTNNBL1_Q8WYA6_408_EHEEHVCSILASLLR (UniProt Q8WYA6) | -0.0454 | -0.206
COX5B_P10606_91+93_IVGCICEEDNTSVVWFWLHK (UniProt P10606) | 0.124 | -0.102
CSE1L_P55060_325_YDLLVSNAIQFLASVCERPHYK (UniProt P55060) | 0.202 | 0.0501
CTNND1_O60716_618_YQEAAPNVANNTGPHAASCFGAK (UniProt O60716) | -0.274 | -0.78

Some of the entries so far, as comma-separated lines.
Target,probe-labelled cysteine peptide fold change (10 µM),probe-labelled cysteine peptide fold change (50 µM)
CSNK2B_P67870_23_GNEFFCEVDEDYIQDK (UniProt P67870),-0.0762,0.0745
CPSF1_Q10570_1020_CTAHYVAYHVESK (UniProt Q10570),0.0843,-0.0666
CRACR2A_Q9BSW2_29_GSGACLHPLDSLEQK (UniProt Q9BSW2),-0.125,-0.217
CRABP1_P29762_130_ELANDELILTFGADDVVCTR (UniProt P29762),0.082,0.307
CPT2_P23786_639_EFLQCVEK (UniProt P23786),0.159,0.0476
CORO1C_Q9ULV4_23_NDQCYDDIR (UniProt Q9ULV4),0.000894,0.0628
